Values from PubChem BioAssay AID504793 (Drosophila RNAi Screening Center, 2011)
Screen: 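Genes required for cells to halt at G2/M after double-strand DNA breaks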 (primary screen). Cells: Drosophila S2R+ cells. Knock-down reagent: long dsRNA against Drosophila genes, about 0.25 µg dsRNA per well. Time to read-out: 4 days of dsRNA, then 4 hours of drug before read-out. Treatment: doxorubicin 0.5 µM for 4 hours to cause double-strand breaks, in cells also given a low, harmless dose of dsRNA against nbs to sensitise the assay. Detection: 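Mitotic index as the number of phospho-histone H3-positive cells in each well following doxorubicin, given as raw counts without normalisation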. Reading the numbers: mitotic cells: higher = more cells in mitosis, weaker G2 arrest. Call rule: 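Genes are called active only when high mitotic counts were reproduced with independent dsRNAs and mitosis was checked for delay without damage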. Calls: active = confirmed in follow-up tests; inactive = not confirmed.
In all, the deposit lists about 23,000 reagents; shown is an unselected part of those that have a named target and a result. Over the whole deposit, 62 (0.27%) are marked active. 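Calls come from follow-up tests whose scores are not deposited, so confirmed genes may have low counts here; counts are not normalised per plate.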 Raw values are not corrected between plates.

| gene | DRSC id | mitotic cells, replicate 1 | Call |
| --- | --- | --- | --- |
| Jon99Ci (Jonah 99Ci) | DRSC16860 | 10 | inactive |
| Jon99Ci (Jonah 99Ci) | DRSC28041 | 5 | inactive |
| Cerk (Ceramide kinase) | DRSC12285 | 4 | inactive |
| ranshi | DRSC16564 | 5 | inactive |
| ranshi | DRSC29605 | 4 | inactive |
| CG1544 | DRSC15036 | 6 | inactive |
| Galphai (G protein alpha subunit i) | DRSC11168 | 6 | inactive |
| Galphai (G protein alpha subunit i) | DRSC28521 | 12 | inactive |
| CG3376 | DRSC04362 | 4 | inactive |
| CG3376 | DRSC26489 | 4 | inactive |
| Sc2 | DRSC08162 | 5 | inactive |
| Sc2 | DRSC26153 | 5 | inactive |
| Tom7 (Translocase of outer membrane 7) | DRSC05135 | 8 | inactive |
| Tom7 (Translocase of outer membrane 7) | DRSC07113 | 9 | inactive |
| CG10383 | DRSC02050 | 11 | inactive |
| CG10383 | DRSC29310 | 5 | inactive |
| CG15200 | DRSC19647 | 9 | inactive |
| CG15200 | DRSC24618 | 2 | inactive |
| ckn (caskin) | DRSC06149 | 8 | inactive |
| Tsf2 (Transferrin 2) | DRSC09751 | 8 | inactive |
| CG14722 | DRSC14944 | 4 | inactive |
| CG14722 | DRSC24593 | 6 | inactive |
| CG17242 | DRSC00493 | 4 | inactive |
| aos (argos) | DRSC11323 | 5 | inactive |
| can (cannonball) | DRSC10664 | 5 | inactive |
| Or63a (Odorant receptor 63a) | DRSC08681 | 4 | inactive |
| CG10182 | DRSC14202 | 18 | inactive |
| CG10182 | DRSC25451 | 4 | inactive |
| tow (target of wingless) | DRSC23125 | 13 | inactive |
| tow (target of wingless) | DRSC26759 | 5 | inactive |
| Dgkepsilon (Diacyl glycerol kinase epsilon) | DRSC07399 | 7 | inactive |
| E(spl)m4-BFM (Enhancer of split m4, Bearded family member) | DRSC16992 | 10 | inactive |
| E(spl)m4-BFM (Enhancer of split m4, Bearded family member) | DRSC27642 | 13 | inactive |
| Nuak (Nuak family kinase) | DRSC14414 | 4 | inactive |
| Nuak (Nuak family kinase) | DRSC14415 | 9 | inactive |
| Nuak (Nuak family kinase) | DRSC14416 | 2 | inactive |
| CG30151 | DRSC05888 | 10 | inactive |
| CG30151 | DRSC24759 | 3 | inactive |
| z (zeste) | DRSC23134 | 14 | inactive |
| CG13075 | DRSC09958 | 2 | inactive |
| CG13075 | DRSC28458 | 9 | inactive |
| Gr36a (Gustatory receptor 36a) | DRSC22663 | 6 | inactive |
| Gr36a (Gustatory receptor 36a) | DRSC27724 | 2 | inactive |
| Non2 (Novel nucleolar protein 2) | DRSC08272 | 2 | inactive |
| Non2 (Novel nucleolar protein 2) | DRSC25342 | 7 | inactive |

Entries listed so far whose target name starts with T or t:
| gene | DRSC id | mitotic cells, replicate 1 | Call |
| --- | --- | --- | --- |
| Tom7 (Translocase of outer membrane 7) | DRSC05135 | 8 | inactive |
| Tom7 (Translocase of outer membrane 7) | DRSC07113 | 9 | inactive |
| Tsf2 (Transferrin 2) | DRSC09751 | 8 | inactive |
| tow (target of wingless) | DRSC23125 | 13 | inactive |
| tow (target of wingless) | DRSC26759 | 5 | inactive |
